Laboratory results as given in PMC5702903 (CPT: Pharmacometrics & Systems Pharmacology, 2017).

Test: Empirical plasma PK model
Type: in vivo
Settings: rat plasma PK model; parameter estimate (RSE, %)

SMILES	VPL, distribution volume of the central compartment	VPER1, distribution volume of the peripheral compartment 1	VPER2, distribution volume of the peripheral compartment 2
CC(C)NCC(O)COc1ccc(CC(N)=O)cc1 (stereo not shown) [Atenolol]	256 (27.0) mL		
CN1CC[C@]23c4c5ccc(O)c4O[C@H]2[C@@H](O)C=C[C@H]3[C@H]1C5 [Morphine]	152 (11.1) mL	530 (9.10) mL	1,200 (10.8) mL
